From patent publication US20080124310A1, “Bead based receptor biology” (priority 2006, published 2008)
For at least one compound, name, drawing or mass did not settle the structure.

Tested on: PI3K pathway to PIP3
Experiment: PIP3 accumulation at site of IgG coated particles measured with AKT/PH-GFP
Assay type: cell-based, murine
Procedure: FIG. 27 illustrates the use of PiP3 binding PH domains to screen atherosclerosis drugs in macrophages.
The PI3K pathway that converts PIP4, 5 bis-phosphate to PIP3, 4, 5, triphosphate, also called PIP3. PIP3 is measured by the Pleckstrin Homology (PH) domain of the protein kinase AKT, that has a high affinity for PIP3, fused to GFP (AKT/PH-GFP). The accumulation of phosphatidyl inositol triphosphate at the site of IgG coated particles was inhibited using wortamannin, and LY294002 dissolved into the cell experimental media.

| SMILES | accumulation of PIP3 at the site of IgG coated particles |
| --- | --- |
| O=c1cc(N2CCOCC2)oc2c(-c3ccccc3)cccc12 [LY294002] | inhibited |
| COC[C@H]1OC(=O)c2coc3c2[C@@]1(C)C1=C(C3=O)[C@@H]2CCC(=O)[C@@]2(C)C[C@H]1OC(C)=O [wortamannin, wortmannin] | inhibited |
